{
  "sequences": {"note": "Protein sequences, listed by entry. Tags and fused reporters are not part of them.", "UniProt P9WIT5": "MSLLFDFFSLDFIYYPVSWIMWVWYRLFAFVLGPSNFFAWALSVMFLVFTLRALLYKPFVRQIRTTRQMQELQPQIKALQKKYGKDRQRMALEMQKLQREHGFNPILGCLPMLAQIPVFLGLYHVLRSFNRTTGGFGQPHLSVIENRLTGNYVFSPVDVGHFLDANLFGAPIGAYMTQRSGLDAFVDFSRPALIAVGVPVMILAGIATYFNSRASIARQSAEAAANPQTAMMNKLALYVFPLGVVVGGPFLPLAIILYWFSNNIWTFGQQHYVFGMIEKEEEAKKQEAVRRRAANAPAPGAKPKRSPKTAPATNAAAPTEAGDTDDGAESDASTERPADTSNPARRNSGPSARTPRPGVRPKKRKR", "UniProt O53670": "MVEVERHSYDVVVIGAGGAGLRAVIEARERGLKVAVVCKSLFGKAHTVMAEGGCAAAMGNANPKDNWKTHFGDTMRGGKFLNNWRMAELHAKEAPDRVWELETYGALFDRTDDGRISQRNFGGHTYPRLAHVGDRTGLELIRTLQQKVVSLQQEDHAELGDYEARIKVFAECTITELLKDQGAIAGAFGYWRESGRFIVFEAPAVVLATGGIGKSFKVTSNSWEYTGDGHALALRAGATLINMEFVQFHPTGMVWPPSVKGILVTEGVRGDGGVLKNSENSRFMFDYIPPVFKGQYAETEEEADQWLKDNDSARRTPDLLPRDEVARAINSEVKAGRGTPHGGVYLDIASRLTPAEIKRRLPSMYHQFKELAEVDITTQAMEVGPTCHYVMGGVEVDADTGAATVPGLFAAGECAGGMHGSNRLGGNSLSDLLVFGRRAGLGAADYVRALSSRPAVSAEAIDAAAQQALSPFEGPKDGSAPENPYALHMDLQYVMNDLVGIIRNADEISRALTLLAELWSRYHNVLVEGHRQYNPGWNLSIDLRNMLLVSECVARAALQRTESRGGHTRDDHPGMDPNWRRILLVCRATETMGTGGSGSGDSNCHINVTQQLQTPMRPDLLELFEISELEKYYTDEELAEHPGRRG", "UniProt P9WH23": "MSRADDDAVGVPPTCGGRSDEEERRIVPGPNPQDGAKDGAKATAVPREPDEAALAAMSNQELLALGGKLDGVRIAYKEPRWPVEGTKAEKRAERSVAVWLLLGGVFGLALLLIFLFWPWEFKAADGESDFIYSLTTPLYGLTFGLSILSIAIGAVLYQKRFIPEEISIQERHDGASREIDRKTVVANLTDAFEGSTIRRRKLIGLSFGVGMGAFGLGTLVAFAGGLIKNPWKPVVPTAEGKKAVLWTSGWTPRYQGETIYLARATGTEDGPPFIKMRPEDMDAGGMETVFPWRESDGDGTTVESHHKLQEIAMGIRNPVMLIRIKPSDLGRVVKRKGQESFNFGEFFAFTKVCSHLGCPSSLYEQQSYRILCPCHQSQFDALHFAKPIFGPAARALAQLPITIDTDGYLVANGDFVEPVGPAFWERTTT", "UniProt O53669": "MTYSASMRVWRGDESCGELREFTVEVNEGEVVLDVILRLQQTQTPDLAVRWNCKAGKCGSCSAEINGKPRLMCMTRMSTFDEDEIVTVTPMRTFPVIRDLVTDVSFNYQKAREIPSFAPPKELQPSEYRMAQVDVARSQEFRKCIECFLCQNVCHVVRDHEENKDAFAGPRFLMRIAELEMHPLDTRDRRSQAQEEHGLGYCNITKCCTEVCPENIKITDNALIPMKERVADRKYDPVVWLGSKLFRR"},
  "source": "paper PMC4863248",
  "test_in_all_cases": "co-IP",
  "key": {"[1]": {"target": "YidC of Mycobacterium tuberculosis (Rv3921c) (Mycobacterium tuberculosis) (UniProt P9WIT5)"}, "[2]": {"target": "Rv0248c-FLAG (putative succinate dehydrogenase subunit A1) (Mycobacterium tuberculosis) (UniProt O53670)"}, "[3]": {"target": "QcrA-FLAG (ubiquinol-cytochrome C reductase subunit QcrA, Rv2195) (Mycobacterium tuberculosis) (UniProt P9WH23)"}, "[4]": {"target": "cMyc-Rv0247c (putative succinate dehydrogenase subunit B1) (Mycobacterium tuberculosis) (UniProt O53669)"}},
  "note": "Results are given in words; binding and its absence hold for the method and conditions named. In cells and extracts the contact can be indirect. Some binding calls cover weakened binding; strength is not graded here.",
  "data": [
    {"substance": "cMyc-Rv0247c (putative succinate dehydrogenase subunit B1) (from UniProt O53669 1-248)", "values": [
      {"measurement": "binding", "setting": "[1]", "result": "binds"}
    ]},
    {"substance": "YidC of Mycobacterium tuberculosis (Rv3921c) (from UniProt P9WIT5 1-366)", "values": [
      {"measurement": "binding", "setting": "[2]", "result": "binds"},
      {"measurement": "binding", "setting": "[3]", "result": "binds"},
      {"measurement": "binding", "setting": "[4]", "result": "binds"}
    ]},
    {"substance": "QcrA-FLAG (ubiquinol-cytochrome C reductase subunit QcrA, Rv2195) (from UniProt P9WH23 1-429)", "values": [
      {"measurement": "binding", "setting": "[1]", "result": "binds"}
    ]},
    {"substance": "Rv0248c-FLAG (putative succinate dehydrogenase subunit A1) (from UniProt O53670 1-646)", "values": [
      {"measurement": "binding", "setting": "[1]", "result": "binds"}
    ]}
  ]
}
